Assay results from publication doi:10.1101/721316.
No constants are given. Whether binding was seen depends on the method and setting. Binding seen in cells or lysates may run through a third protein. Some binding calls cover weakened binding; strength is not graded here. Tags and fused reporters may be left off the sequences shown.

The chains behind the UniProt entries cited, without tags or fusion partners.
UniProt P21333: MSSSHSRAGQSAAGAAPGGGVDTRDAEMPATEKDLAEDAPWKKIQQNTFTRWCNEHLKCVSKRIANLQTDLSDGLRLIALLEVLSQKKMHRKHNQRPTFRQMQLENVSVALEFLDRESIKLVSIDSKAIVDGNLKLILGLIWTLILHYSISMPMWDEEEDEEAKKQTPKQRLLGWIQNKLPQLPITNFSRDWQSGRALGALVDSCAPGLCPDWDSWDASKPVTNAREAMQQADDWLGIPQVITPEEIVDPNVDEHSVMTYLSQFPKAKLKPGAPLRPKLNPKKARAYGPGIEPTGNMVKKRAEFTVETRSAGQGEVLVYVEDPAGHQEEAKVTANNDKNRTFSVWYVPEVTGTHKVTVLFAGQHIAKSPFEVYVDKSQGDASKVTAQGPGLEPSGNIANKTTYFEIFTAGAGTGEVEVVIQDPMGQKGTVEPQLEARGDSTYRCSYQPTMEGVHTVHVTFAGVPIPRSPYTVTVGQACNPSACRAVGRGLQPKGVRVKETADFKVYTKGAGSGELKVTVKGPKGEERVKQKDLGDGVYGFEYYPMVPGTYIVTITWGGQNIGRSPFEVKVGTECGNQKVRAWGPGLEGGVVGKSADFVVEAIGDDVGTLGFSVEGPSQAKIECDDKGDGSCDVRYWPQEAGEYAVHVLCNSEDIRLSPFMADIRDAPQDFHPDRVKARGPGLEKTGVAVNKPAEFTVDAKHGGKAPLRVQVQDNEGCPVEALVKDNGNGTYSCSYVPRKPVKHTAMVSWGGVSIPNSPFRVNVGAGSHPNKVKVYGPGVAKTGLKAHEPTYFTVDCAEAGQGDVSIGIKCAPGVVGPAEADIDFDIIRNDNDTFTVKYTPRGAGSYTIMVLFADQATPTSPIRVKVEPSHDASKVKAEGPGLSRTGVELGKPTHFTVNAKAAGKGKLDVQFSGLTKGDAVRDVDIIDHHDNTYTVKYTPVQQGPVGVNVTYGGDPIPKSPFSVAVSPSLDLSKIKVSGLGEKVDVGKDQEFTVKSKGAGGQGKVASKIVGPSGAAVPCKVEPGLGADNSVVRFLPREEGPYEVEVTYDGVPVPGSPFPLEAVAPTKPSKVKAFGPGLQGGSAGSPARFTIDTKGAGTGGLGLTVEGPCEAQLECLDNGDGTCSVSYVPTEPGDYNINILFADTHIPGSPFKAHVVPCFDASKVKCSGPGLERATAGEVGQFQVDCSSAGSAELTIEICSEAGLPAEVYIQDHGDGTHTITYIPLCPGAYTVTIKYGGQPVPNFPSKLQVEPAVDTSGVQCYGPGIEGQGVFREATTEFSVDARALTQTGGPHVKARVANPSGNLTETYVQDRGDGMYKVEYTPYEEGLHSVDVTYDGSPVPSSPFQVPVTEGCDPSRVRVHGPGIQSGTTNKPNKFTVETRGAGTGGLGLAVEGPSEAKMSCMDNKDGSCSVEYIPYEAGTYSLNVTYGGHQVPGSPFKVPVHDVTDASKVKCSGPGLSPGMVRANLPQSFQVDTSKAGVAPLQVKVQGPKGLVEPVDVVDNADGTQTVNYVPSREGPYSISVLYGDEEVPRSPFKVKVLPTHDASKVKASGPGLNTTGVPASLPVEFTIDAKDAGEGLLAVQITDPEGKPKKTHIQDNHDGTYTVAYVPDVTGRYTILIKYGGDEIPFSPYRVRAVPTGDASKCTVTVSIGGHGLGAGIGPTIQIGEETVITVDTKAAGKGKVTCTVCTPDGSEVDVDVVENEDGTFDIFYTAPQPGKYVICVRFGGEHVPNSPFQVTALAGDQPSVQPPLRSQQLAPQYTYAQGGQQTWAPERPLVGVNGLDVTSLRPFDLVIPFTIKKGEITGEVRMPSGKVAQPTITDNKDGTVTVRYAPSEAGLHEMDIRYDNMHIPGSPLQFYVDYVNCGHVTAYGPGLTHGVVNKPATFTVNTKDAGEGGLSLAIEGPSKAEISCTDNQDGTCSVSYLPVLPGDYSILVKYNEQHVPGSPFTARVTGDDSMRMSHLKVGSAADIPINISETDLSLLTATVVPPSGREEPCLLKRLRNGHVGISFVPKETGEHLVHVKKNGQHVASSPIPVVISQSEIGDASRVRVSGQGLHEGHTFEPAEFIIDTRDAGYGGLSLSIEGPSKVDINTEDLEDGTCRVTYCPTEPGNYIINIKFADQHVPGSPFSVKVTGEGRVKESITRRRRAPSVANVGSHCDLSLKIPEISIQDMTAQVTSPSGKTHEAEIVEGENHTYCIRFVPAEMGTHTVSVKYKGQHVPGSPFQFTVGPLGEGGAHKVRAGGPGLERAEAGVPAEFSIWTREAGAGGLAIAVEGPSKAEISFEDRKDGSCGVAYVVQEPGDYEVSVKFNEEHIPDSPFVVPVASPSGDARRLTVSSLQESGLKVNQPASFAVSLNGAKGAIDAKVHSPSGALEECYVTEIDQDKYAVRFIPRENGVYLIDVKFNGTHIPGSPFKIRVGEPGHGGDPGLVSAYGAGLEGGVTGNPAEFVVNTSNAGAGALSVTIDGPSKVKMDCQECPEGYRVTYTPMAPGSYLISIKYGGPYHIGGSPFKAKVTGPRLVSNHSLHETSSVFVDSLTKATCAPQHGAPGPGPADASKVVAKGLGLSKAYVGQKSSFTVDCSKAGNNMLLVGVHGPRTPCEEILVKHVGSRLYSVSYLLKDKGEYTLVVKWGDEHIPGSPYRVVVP

Target: T1, LUZP1-YFP (human) (UniProt Q86V48)
T1 sequence: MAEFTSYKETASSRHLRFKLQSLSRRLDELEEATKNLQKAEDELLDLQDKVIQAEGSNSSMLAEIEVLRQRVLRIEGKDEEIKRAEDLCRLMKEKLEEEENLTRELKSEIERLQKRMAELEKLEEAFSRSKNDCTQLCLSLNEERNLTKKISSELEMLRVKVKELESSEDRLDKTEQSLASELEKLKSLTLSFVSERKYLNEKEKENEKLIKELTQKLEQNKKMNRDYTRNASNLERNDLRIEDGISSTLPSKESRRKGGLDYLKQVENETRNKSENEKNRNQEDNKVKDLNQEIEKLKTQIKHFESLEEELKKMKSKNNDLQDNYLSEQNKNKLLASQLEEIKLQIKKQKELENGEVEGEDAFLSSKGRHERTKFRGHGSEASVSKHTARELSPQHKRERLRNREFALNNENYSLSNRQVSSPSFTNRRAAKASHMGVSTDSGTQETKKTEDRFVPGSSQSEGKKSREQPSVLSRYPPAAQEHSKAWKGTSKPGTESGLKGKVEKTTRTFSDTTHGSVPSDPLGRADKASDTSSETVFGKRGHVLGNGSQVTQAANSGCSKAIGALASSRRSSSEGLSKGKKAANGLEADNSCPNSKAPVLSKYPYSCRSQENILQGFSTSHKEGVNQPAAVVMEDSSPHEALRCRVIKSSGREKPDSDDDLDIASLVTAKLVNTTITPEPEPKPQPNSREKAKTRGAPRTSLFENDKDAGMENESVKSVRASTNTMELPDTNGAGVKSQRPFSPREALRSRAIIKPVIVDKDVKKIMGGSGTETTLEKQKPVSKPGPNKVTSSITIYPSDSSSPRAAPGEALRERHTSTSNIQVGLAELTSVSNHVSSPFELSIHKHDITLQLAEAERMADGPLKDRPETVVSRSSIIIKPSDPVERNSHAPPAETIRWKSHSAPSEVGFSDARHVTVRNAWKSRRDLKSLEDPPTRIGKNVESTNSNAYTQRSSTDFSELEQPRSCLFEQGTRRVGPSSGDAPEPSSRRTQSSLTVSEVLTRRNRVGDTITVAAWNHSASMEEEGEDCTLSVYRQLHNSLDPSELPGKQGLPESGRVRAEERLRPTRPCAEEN
Experiment: pull-down

binding: binds
Substance: filamin A (FLNA) (from UniProt P21333 1-2647)
